Measurements as given in PMC7463771.
These are yes or no findings as the source states them, for the method shown. Binding seen in cells or lysates may run through a third protein. Some entries that bind do so weakly or less than the wild type.

Amino acid sequences for entries named in this document (tags omitted).
UniProt P46109: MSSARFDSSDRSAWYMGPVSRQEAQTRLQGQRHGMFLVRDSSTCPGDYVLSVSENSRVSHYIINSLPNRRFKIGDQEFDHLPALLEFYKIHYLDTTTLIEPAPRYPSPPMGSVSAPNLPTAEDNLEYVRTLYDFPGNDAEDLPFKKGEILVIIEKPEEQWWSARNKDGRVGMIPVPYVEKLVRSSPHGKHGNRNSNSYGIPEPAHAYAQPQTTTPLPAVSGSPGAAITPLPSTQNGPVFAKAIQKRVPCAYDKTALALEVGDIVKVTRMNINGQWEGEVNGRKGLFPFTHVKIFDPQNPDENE
UniProt P00520: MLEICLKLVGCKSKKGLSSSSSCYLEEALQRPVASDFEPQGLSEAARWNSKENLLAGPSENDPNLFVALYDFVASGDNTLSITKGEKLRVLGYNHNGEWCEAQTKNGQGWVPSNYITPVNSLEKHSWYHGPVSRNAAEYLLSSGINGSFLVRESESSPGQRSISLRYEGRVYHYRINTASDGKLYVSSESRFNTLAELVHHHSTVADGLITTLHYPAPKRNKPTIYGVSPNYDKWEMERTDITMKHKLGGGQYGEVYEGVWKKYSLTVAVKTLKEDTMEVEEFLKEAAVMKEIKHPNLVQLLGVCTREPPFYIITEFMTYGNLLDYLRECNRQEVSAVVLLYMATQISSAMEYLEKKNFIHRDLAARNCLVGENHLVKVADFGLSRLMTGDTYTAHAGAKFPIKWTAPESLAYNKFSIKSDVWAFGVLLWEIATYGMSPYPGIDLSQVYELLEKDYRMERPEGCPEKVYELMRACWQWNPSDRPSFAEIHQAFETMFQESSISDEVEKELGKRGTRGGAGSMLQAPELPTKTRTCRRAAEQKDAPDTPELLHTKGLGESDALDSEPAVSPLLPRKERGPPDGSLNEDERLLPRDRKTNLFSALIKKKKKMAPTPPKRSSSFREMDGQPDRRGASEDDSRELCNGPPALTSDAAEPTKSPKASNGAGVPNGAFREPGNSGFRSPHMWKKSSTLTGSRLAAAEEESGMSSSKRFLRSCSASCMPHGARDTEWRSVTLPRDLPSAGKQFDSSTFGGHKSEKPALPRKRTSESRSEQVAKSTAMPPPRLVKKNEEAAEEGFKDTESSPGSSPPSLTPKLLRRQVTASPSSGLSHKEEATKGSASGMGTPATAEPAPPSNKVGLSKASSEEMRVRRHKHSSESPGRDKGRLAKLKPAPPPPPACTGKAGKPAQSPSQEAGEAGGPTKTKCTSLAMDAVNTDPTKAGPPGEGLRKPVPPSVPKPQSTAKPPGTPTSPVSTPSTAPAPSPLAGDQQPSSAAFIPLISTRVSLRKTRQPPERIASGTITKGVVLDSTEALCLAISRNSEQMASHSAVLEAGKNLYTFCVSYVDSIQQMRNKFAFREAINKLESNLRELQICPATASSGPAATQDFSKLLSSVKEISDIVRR

T1: Gab1 (human (endogenous in Hep3B)) (UniProt Q13480)
T1 sequence: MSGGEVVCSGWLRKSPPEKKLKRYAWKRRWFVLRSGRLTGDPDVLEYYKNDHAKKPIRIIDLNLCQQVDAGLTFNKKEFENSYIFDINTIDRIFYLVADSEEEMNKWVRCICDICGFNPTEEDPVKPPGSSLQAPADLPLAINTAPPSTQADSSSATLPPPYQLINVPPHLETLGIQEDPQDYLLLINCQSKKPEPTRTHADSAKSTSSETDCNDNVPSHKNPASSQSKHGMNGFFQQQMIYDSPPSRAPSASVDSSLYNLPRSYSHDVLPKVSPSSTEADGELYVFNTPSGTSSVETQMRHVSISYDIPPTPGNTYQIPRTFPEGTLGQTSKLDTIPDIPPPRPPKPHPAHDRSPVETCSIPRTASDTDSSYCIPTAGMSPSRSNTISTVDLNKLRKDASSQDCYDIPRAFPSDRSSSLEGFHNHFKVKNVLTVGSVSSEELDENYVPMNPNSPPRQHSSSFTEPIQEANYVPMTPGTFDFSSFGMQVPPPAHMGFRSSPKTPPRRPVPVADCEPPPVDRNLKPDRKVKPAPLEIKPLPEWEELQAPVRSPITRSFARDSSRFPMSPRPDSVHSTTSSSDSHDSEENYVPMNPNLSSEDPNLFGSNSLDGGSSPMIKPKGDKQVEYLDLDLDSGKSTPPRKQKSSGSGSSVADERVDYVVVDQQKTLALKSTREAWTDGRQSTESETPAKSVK

T2: Gab1 (mouse, mHCC1 cells) (mouse (endogenous in mHCC1)) (UniProt Q9QYY0)
T2 sequence: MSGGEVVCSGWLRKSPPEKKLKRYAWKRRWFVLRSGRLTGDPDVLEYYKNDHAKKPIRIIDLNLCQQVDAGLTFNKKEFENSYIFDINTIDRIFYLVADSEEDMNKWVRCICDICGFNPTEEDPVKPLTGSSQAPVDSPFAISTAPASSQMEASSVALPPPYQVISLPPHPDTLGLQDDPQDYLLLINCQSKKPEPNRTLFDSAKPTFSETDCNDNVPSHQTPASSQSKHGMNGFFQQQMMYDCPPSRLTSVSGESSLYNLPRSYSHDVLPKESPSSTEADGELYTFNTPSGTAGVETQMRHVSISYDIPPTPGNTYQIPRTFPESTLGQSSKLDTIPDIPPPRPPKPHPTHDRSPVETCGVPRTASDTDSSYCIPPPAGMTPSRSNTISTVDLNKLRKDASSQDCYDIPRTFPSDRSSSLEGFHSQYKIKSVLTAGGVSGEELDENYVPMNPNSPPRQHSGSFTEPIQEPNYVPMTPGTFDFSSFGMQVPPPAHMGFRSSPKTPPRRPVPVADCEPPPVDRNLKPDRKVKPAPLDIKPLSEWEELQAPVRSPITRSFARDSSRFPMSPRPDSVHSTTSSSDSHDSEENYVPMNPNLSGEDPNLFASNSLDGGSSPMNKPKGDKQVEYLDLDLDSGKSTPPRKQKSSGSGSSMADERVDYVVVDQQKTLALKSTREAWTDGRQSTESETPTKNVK


Assays:
[1] = target: T1, Gab1 (human (endogenous in Hep3B)); assay: co-IP; immunoprecipitation of endogenous Gab1 from Hep3B lysates (non-silenced or shC3G; serum starved, untreated or HGF 5 min); IP buffer 50 mM Tris-HCl pH 7.5, 150 mM NaCl, 1% NP40; Western blot of C3G, Gab1 and CrkL
[2] = target: T2, Gab1 (mouse, mHCC1 cells) (mouse (endogenous in mHCC1)); assay: co-IP; immunoprecipitation of MET, Gab1 or Abl from lysates of mouse Alb-R26^Met mHCC1 cells (control or shC3G); IP buffer 50 mM Tris-HCl pH 7.5, 150 mM NaCl, 1% NP40; Western blot of C3G, MET and P-MET (Y1234/Y1235)
[3] = target: T1, Gab1 (human (endogenous in Hep3B)); assay: co-IP; as a1, lysates of Hep3B cells not treated with HGF

| binding [1] | binding [2] | Molecule | binding [3] |
| --- | --- | --- | --- |
| binds | – | CrkL (from UniProt P46109 1-303) | – |
| – | no binding | Abl (mouse, mHCC1 cells) (from UniProt P00520 1-1123) (enzyme) | – |
| binds | – | C3G (Crk SH3-domain-binding guanine-nucleotide-releasing factor) (protein, UniProt Q13905 1-1077) MDTDSQRSHLSSFTMKLMDKFHSPKIKRTPSKKGKPAEVSVKIPEKPVNKEATDRFLPEGYPLPLDLEQQAVEFMSTSAVASRSQRQKNLSWLEEKEKEVVSALRYFKTIVDKMAIDKKVLEMLPGSASKVLEAILPLVQNDPRIQHSSALSSCYSRVYQSLANLIRWSDQVMLEGVNSEDKEMVTTVKGVIKAVLDGVKELVRLTIEKQGRPSPTSPVKPSSPASKPDGPAELPLTDREVEILNKTTGMSQSTELLPDATDEEVAPPKPPLPGIRVVDNSPPPALPPKKRQSAPSPTRVAVVAPMSRATSGSSLPVGINRQDFDVDCYAQRRLSGGSHSYGGESPRLSPCSSIGKLSKSDEQLSSLDRDSGQCSRNTSCETLDHYDPDYEFLQQDLSNADQIPQQTAWNLSPLPESLGESGSPFLGPPFQLPLGGHPQPDGPLAPGQQTDTPPALPEKKRRSAASQTADGSGCRVSYERHPSQYDNISGEDLQSTAPIPSVPYAPFAAILPFQHGGSSAPVEFVGDFTAPESTGDPEKPPPLPEKKNKHMLAYMQLLEDYSEPQPSMFYQTPQNEHIYQQKNKLLMEVYGFSDSFSGVDSVQELAPPPALPPKQRQLEPPAGKDGHPRDPSAVSGVPGKDSRDGSERAPKSPDALESAQSEEEVDELSLIDHNEIMSRLTLKQEGDDGPDVRGGSGDILLVHATETDRKDLVLYCEAFLTTYRTFISPEELIKKLQYRYEKFSPFADTFKKRVSKNTFFVLVRVVDELCLVELTEEILKLLMELVFRLVCNGELSLARVLRKNILDKVDQKKLLRCATSSQPLAARGVAARPGTLHDFHSHEIAEQLTLLDAELFYKIEIPEVLLWAKEQNEEKSPNLTQFTEHFNNMSYWVRSIIMLQEKAQDRERLLLKFIKIMKHLRKLNNFNSYLAILSALDSAPIRRLEWQKQTSEGLAEYCTLIDSSSSFRAYRAALSEVEPPCIPYLGLILQDLTFVHLGNPDYIDGKVNFSKRWQQFNILDSMRCFQQAHYDMRRNDDIINFFNDFSDHLAEEALWELSLKIKPRNITRRKTDREEKT | no binding (condition: cells not treated with HGF) |
